Results published in paper PMC6050238.
Results are given in words; binding and its absence hold for the method and conditions named. In cells and extracts the contact can be indirect. Some entries that bind do so weakly or less than the wild type.

Chains of the proteins cited; added tags and fusions are not shown.
UniProt Q13620: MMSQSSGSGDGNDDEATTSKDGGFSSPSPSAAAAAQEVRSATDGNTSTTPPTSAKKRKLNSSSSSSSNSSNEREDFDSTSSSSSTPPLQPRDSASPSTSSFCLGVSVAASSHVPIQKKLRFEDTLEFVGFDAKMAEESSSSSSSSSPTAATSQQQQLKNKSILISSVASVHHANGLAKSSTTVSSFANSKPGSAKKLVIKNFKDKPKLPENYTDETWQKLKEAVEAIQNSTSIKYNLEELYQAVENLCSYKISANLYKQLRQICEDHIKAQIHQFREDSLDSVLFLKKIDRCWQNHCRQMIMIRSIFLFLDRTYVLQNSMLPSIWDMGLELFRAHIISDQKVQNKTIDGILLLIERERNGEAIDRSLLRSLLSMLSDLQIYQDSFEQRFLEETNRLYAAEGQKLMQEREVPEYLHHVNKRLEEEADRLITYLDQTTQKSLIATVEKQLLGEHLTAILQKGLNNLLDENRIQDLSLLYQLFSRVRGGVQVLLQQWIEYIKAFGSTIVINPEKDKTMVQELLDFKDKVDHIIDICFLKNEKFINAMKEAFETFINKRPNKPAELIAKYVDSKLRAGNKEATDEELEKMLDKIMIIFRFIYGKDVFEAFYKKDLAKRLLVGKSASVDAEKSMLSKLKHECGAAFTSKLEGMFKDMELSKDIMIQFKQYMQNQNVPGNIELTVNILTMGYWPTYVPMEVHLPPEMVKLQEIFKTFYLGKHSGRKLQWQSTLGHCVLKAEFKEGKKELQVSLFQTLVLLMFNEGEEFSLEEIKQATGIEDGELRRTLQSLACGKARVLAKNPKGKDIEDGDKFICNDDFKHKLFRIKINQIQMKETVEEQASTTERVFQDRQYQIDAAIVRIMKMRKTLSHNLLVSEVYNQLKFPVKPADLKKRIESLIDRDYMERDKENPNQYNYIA

Columns and labels:
[1] = molecular target: FLAG-tagged full-length RepID (replication initiation determinant protein) (UniProt Q8WWQ0); assay: co-IP; FLAG immunoprecipitation (anti-FLAG antibody / FLAG-agarose beads) of soluble nuclear and chromatin-bound fractions of U2OS cells expressing FLAG-RepID fragments; overnight at 4 °C, washed three times with PBS; co-precipitated cullins detected by immunoblot
[2] = molecular target: CUL4A (endogenous) (human (endogenous in U2OS)) (UniProt Q13619); assay: co-IP; immunoprecipitation with antibodies directed against endogenous CUL4A and CUL4B (Supplementary Fig. 1c)
[3] = molecular target: CUL4B (endogenous) (human (endogenous in U2OS)) (UniProt Q13620); assay: as above

binding [1]	binding [2]	binding [3]	Substance
binds			CUL4A (endogenous) (from UniProt Q13619 1-759)
binds			CUL4B (endogenous) (from UniProt Q13620 1-913)
	binds	binds	RepID (co-precipitated with antibodies against endogenous CUL4A and CUL4B) (from UniProt Q8WWQ0 1-1821)
